# Results are given in words; binding and its absence hold for the method and conditions named. In cells and extracts the contact can be indirect. Some entries that bind do so weakly or less than the wild type.
# T1: ornithine transcarbamylase (OTC), endogenous in mouse liver mitochondria (mouse (endogenous in mouse liver mitochondria)) (UniProt P11725)
# T1 sequence: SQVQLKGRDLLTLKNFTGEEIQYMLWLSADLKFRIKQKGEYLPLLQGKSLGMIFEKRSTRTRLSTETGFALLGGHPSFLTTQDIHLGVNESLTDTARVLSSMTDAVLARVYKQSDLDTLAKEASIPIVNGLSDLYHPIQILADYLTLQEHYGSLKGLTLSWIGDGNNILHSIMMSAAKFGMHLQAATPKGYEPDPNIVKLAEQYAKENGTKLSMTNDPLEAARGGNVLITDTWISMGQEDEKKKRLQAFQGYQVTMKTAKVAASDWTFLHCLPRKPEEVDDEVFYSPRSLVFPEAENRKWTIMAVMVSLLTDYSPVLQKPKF
# B1: carbamylphosphate synthetase 1 (CPS1), endogenous in mouse liver mitochondria (enzyme, UniProt Q8C196 39-1500)
# chain: LSVKAKTAHIVLEDGTKMKGYSFGHPSSVAGEVVFNTGLGGYPEALTDPAYKGQILTMANPIIGNGGAPDTTARDELGLNKYMESDGIKVAGLLVLNYSNDYNHWLATKSLGQWLQEEKVPAIYGVDTRMLTKIIRDKGTMLGKIEFEGQSVDFVDPNKQNLIAEVSTKDVKVFGKGNPTKVVAVDCGIKNNVIRLLVKRGAEVHLVPWNHDFTQMEYDGLLIAGGPGNPALAQPLIQNVKKILESDRKEPLFGISTGNIITGLAAGAKSYKMSMANRGQNQPVLNITNRQAFITAQNHGYALDNTLPAGWKPLFVNVNDQTNEGIMHESKPFFAVQFHPEVSPGPTDTEYLFDSFFSLIKKGKGTTITSVLPKPALVASRVEVSKVLILGSGGLSIGQAGEFDYSGSQAVKAMKEENVKTVLMNPNIASVQTNEVGLKQADAVYFLPITPQFVTEVIKAERPDGLILGMGGQTALNCGVELFKRGVLKEYGVKVLGTSVESIMATEDRQLFSDKLNEINEKIAPSFAVESMEDALKAADTIGYPVMIRSAYALGGLGSGICPNKETLIDLGTKAFAMTNQILVERSVTGWKEIEYEVVRDADDNCVTVCNMENVDAMGVHTGDSVVVAPAQTLSNAEFQMLRRTSVNVVRHLGIVGECNIQFALHPTSMEYCIIEVNARLSRSSALASKATGYPLAFIAAKIALGIPLPEIKNVVSGKTSACFEPSLDYMVTKIPRWDLDRFHGTSSRIGSSMKSVGEVMAIGRTFEESFQKALRMCHPSVDGFTPRLPMNKEWPANLDLKKELSEPSSTRIYAIAKALENNMSLDEIVRLTSIDKWFLYKMRDILNMDKTLKGLNSDSVTEETLRKAKEIGFSDKQISKCLGLTEAQTRELRLKKNIHPWVKQIDTLAAEYPSVTNYLYVTYNGQEHDIKFDEHGIMVLGCGPYHIGSSVEFDWCAVSSIRTLRQLGKKTVVVNCNPETVSTDFDECDKLYFEELSLERILDIYHQEACNGCIISVGGQIPNNLAVPLYKNGVKIMGTSPLQIDRAEDRSIFSAVLDELKVAQAPWKAVNTLNEALEFANSVGYPCLLRPSYVLSGSAMNVVFSEDEMKRFLEEATRVSQEHPVVLTKFVEGAREVEMDAVGKEGRVISHAISEHVEDAGVHSGDATLMLPTQTISQGAIEKVKDATRKIAKAFAISGPFNVQFLVKGNDVLVIECNLRASRSFPFVSKTLGVDFIDVATKVMIGESIDEKRLPTLEQPIIPSDYVAIKAPMFSWPRLRDADPILRCEMASTGEVACFGEGIHTAFLKAMLSTGFKIPQKGILIGIQQSFRPRFLGVAEQLHNEGFKLFATEATSDWLNANNVPATPVAWPSQEGQNPSLSSIRKLIRDGSIDLVINLPNNNTKFVHDNYVIRRTAVDSGIALLTNFQVTKLFAEAVQKSRTVDSKSLFHYRQYSAGKAA
# Target: T1, ornithine transcarbamylase (OTC), endogenous in mouse liver mitochondria (mouse (endogenous in mouse liver mitochondria))
# Assay: co-IP; mouse liver mitochondrial lysate (PBS, 2% CHAPS; 1 mg/ml protein for anti-OTC and anti-CPS1, 5 mg/ml for anti-NAGS) with magnetic beads cross-linked to antibodies against NAGS, CPS1 or OTC, 20°C for 10 min, five washes with PBS with 0.05% Triton X-100; immunoblot for NAGS and CPS1; non-specific IgG as negative control
binder,measurement,value
B1,binding,binds

# From PMC7860981, “Mitochondrial Enzymes of the Urea Cycle Cluster at the Inner Mitochondrial Membrane” (Frontiers in Physiology, 2020)
